Data as given in PubChem BioAssay AID504764 (Drosophila RNAi Screening Center, 2011)

Purpose: 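Knock-downs that raise or lower a Notch target reporter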 (primary screen)
Cell system: Drosophila Kc167 cells
Reagent: long dsRNA against Drosophila genes
Time to read-out: about 5 days (4 days dsRNA, then 24 h after transfection)
Conditions: transfection of constitutively active membrane-tethered Notch lacking the extracellular domain, read 24 h later
Read-out: 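Light from a Notch-responsive E(spl)m3 luciferase reporter under active Notch, with control-promoter and no-Notch reporter wells to normalise; raw counts from paired wells a and b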
Scale: induced reporter light, run 1, well a and induced reporter light, run 1, well b: higher = more light from the Notch target reporter with active Notch; control promoter light, run 1, well a and control promoter light, run 1, well b: higher = more light from the viral control promoter (cell number, transfection, viability); uninduced reporter light, run 1, well a: higher = more light from the Notch target reporter without active Notch
Hit rule: 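Wells with low control signal or poorly matching duplicates excluded; duplicates averaged; per source plate, z beyond ±2 for induced/control log2 ratio or beyond ±1.8 for induced/uninduced marks a hit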
Meaning of the calls: active = modifier hit (raised or lowered Notch signal); inactive = not a hit
In all, the deposit lists about 22,000 reagents; this is a random part of those that have a named target and a result. In the full data, 403 (1.9%) are marked active. 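Unnormalised raw counts per well; ratio z-scores behind the hit calls and whether each hit raises or lowers signal are not deposited.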 The numbers tell different reagents against one gene apart. Names joined by + are all predicted targets of the reagent. Not given: the amount of reagent.

| target | reagent no. | induced reporter light, run 1, well a | induced reporter light, run 1, well b | control promoter light, run 1, well a | control promoter light, run 1, well b | uninduced reporter light, run 1, well a | call |
| --- | --- | --- | --- | --- | --- | --- | --- |
| CG8004 | 1 | 1.16e5 | 1.24e5 | 74685 | 92880 | 9070 | inactive |
| eIF1A | 1 | 68205 | 53840 | 75435 | 71615 | 4015 | inactive |
| CG32812 | 1 | 1.34e5 | 1.50e5 | 3.00e5 | 2.84e5 | 10630 | inactive |
| spen | 1 | 2.03e5 | 2.01e5 | 1.69e5 | 1.82e5 | 15170 | inactive |
| CG14244 | 1 | 1.48e5 | 1.66e5 | 1.96e5 | 2.24e5 | 15315 | inactive |
| CG15333 | 1 | 1.42e5 | 1.54e5 | 2.40e5 | 1.98e5 | 11450 | inactive |
| CG15333 | 2 | 1.49e5 | 1.39e5 | 2.10e5 | 2.33e5 | 10588 | inactive |
| Adf1 | 1 | 67405 | 94295 | 80055 | 99845 | 3820 | inactive |
| Adf1 | 2 | 1.35e5 | 1.63e5 | 1.21e5 | 1.41e5 | 13090 | inactive |
| CG32111 (retired record) | 1 | 1.91e5 | 1.63e5 | 2.13e5 | 2.58e5 | 18965 | inactive |
| CG18095 | 1 | 1.61e5 | 1.66e5 | 1.65e5 | 1.73e5 | 14455 | inactive |
| Osi2 | 1 | 70645 | 63010 | 70470 | 75175 | 4800 | inactive |
| pnut | 1 | 1.77e5 | 1.31e5 | 1.67e5 | 1.63e5 | 12300 | inactive |
| CG14191 | 1 | 98180 | 83630 | 1.07e5 | 1.34e5 | 12625 | inactive |
| CG5021 | 1 | 2.08e5 | 2.56e5 | 2.29e5 | 2.77e5 | 10295 | inactive |
| CG11594 | 1 | 1.47e5 | 1.17e5 | 84155 | 34995 | 10105 | inactive |
| CG8562 | 1 | 1.34e5 | 1.14e5 | 1.98e5 | 1.69e5 | 9160 | active |
| Rsph1 | 1 | 1.71e5 | 1.75e5 | 1.82e5 | 1.86e5 | 18205 | inactive |
| RFeSP | 1 | 1.17e5 | 1.45e5 | 99880 | 78295 | 8755 | inactive |
| Cp110 | 1 | 1.53e5 | 1.26e5 | 89310 | 60405 | 9960 | inactive |
| betaTub65B | 1 | 2.28e5 | 2.48e5 | 3.41e5 | 2.36e5 | 12610 | inactive |
| Pop2 | 1 | 52000 | 45840 | 37910 | 14500 | 5195 | inactive |
| inv | 1 | 1.44e5 | 1.52e5 | 2.05e5 | 1.94e5 | 14120 | inactive |
| Snx3 | 1 | 98285 | 79395 | 82715 | 65290 | 4580 | inactive |
| CG9072 | 1 | 89855 | 78930 | 97535 | 76100 | 12970 | inactive |
| scpr-A + scpr-C | 1 | 1.09e5 | 1.13e5 | 1.25e5 | 79115 | 6315 | inactive |
| Tace | 1 | 1.72e5 | 1.80e5 | 2.88e5 | 3.02e5 | 15700 | inactive |
| p38c | 1 | – | – | – | – | – | inactive |
| eEF2 | 1 | 4155 | 5488 | 7160 | 11100 | 292 | inactive |
| Nep6 | 1 | 1.21e5 | 1.24e5 | 1.95e5 | 1.90e5 | 10545 | inactive |
| HDAC4 | 1 | 1.21e5 | 1.35e5 | 1.85e5 | 1.59e5 | 8900 | inactive |
| CG7881 | 1 | 1.59e5 | 1.60e5 | 1.87e5 | 1.44e5 | 10515 | inactive |
| CG13198 | 1 | 1.01e5 | 1.11e5 | 1.70e5 | 1.34e5 | 10985 | inactive |
| CG10734 | 1 | 1.04e5 | 96515 | 98100 | 1.05e5 | 10225 | inactive |
| ems | 1 | 1.96e5 | 1.59e5 | 1.56e5 | 1.62e5 | 14145 | inactive |
| CG42493 | 1 | 2.02e5 | 2.41e5 | 2.82e5 | 2.22e5 | 12810 | inactive |
| Polr1F | 1 | 1.05e5 | 1.35e5 | 1.15e5 | 1.38e5 | 6232 | active |
| CG5757 | 1 | 85955 | 92505 | 1.46e5 | 1.52e5 | 6070 | inactive |
| wuc | 1 | 79980 | 84230 | 1.03e5 | 85570 | 6588 | inactive |
| RpS24 | 1 | 79875 | 95415 | 97795 | 94305 | 5930 | inactive |
| ppk7 | 1 | 1.55e5 | 1.48e5 | 1.46e5 | 1.91e5 | 10490 | inactive |
| CG11791 | 1 | 1.73e5 | 1.79e5 | 2.19e5 | 2.14e5 | 12445 | inactive |
| Ir31a | 1 | – | – | – | – | – | inactive |
| beat-Vc | 1 | 1.20e5 | 1.29e5 | 1.80e5 | 1.44e5 | 7890 | inactive |
| beat-Vc | 2 | 49820 | 57700 | 59530 | 46180 | 4392 | inactive |
| CG3726 | 1 | 2.08e5 | 1.80e5 | 1.75e5 | 1.70e5 | 13205 | inactive |
| CG9016 | 1 | 1.82e5 | 1.25e5 | 1.90e5 | 1.04e5 | 10220 | inactive |
| ATPsyngamma | 1 | 37535 | 33385 | 53805 | 53250 | 2910 | inactive |
| Nepl6 | 1 | 1.55e5 | 1.69e5 | 2.74e5 | 2.72e5 | 16915 | inactive |
| CG3492 | 1 | 94330 | 78875 | 67010 | 62275 | 6385 | inactive |

7 entries from above, arranged by “uninduced reporter light, run 1, well a”, high to low.
| target | reagent no. | induced reporter light, run 1, well a | induced reporter light, run 1, well b | control promoter light, run 1, well a | control promoter light, run 1, well b | uninduced reporter light, run 1, well a | call |
| --- | --- | --- | --- | --- | --- | --- | --- |
| Rsph1 | 1 | 1.71e5 | 1.75e5 | 1.82e5 | 1.86e5 | 18205 | inactive |
| CG14191 | 1 | 98180 | 83630 | 1.07e5 | 1.34e5 | 12625 | inactive |
| pnut | 1 | 1.77e5 | 1.31e5 | 1.67e5 | 1.63e5 | 12300 | inactive |
| CG5021 | 1 | 2.08e5 | 2.56e5 | 2.29e5 | 2.77e5 | 10295 | inactive |
| CG11594 | 1 | 1.47e5 | 1.17e5 | 84155 | 34995 | 10105 | inactive |
| CG8562 | 1 | 1.34e5 | 1.14e5 | 1.98e5 | 1.69e5 | 9160 | active |
| Osi2 | 1 | 70645 | 63010 | 70470 | 75175 | 4800 | inactive |
